The campaign covered roughly 390,000 compounds. About 35 (0.009%) were called active. Listed are the inconclusive results; actives and inactives stand elsewhere. Calls follow the shape of the dose curve; as a rule, active = well fitted inhibition curve with a large enough effect in the polarisation, with a control signal flat (not every such curve was filed as active); inconclusive = small, poorly fitted or top-dose-only effect, or effect the other way, or a change in a side signal; inactive = no such curve, though single readings can be large or run the other way; the % refers to the polarisation.
The compounds below were run against Peptidyl-prolyl cis-trans isomerase NIMA-interacting 1 (Homo sapiens) (UniProt Q13526) (assay: qHTS Assay to Find Inhibitors of Pin1). Conditions: Pin1 FP peptide displacement, HiFluor488, 10 min.
Potency is read from the fitted curve at half-maximal effect.

Sequences of proteins named here, by UniProt entry; tags and fusion partners are left off.
UniProt Q13526, whole entry: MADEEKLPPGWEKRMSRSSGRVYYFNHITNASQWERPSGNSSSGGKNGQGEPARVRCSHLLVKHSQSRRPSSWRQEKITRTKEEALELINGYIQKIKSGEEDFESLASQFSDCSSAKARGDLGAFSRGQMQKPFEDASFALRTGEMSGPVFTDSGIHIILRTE

| SMILES | Potency |
| --- | --- |
| CC1=C2N=C(C=C3N=C(C(C)=C4[N-][C@@](C)([C@@H]5N=C1[C@](C)(CCC(=O)NC[C@@H](C)OP(=O)([O-])O[C@H]1[C@@H](O)[C@@H](n6cnc7cc(C)c(C)cc76)O[C@@H]1CO)[C@H]5CC(N)=O)[C@@](C)(CC(N)=O)[C@@H]4CCC(N)=O)[C@@](C)(CC(N)=O)[C@@H]3CCC(N)=O)C(C)(C)[C@@H]2CCC(N)=O.[C-]#N.[Co+3] | inconclusive: 89.1 µM |
| CC(C)(C)c1ccc(OP(C)(=O)Nc2ccc(SC(F)(F)F)cc2)cc1 (stereo not given) | inconclusive: 33.8 µM |
| Cc1cc(C)cc(OP(C)(=O)Nc2cccc(C(F)(F)F)c2)c1 (stereo not given) | inconclusive: 84.9 µM |
| COc1ccc(OP(C)(=O)Nc2ccccn2)cc1 (stereo not given) | inconclusive: 95.3 µM |
| CC(C)c1ccc(OP(C)(=O)Nc2ccc(SC(F)(F)F)cc2)cc1 (stereo not given) | inconclusive: 84.9 µM |

— PubChem BioAssay AID504891 (National Center for Advancing Translational Sciences (NCATS), 2011)
